Laboratory results from PubChem BioAssay AID1487 (National Center for Advancing Translational Sciences (NCATS), 2009).
This is one part of the list. The main result of the screen is listed elsewhere. These columns were measured beside it and carry no call. Most of these compounds were active or inconclusive in the main read-out, so they are no random draw. The note in brackets gives the kind of curve behind each potency; many fits are weak.

Assay: qHTS Assay for Modulators of Lamin A Splicing
Conditions: HeLa LMNA splicing GFP/RFP minigene ratio, 48 h
In short: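 S3 HeLa cells stably expressing lamin A-EGFP splicing minigene plus DsRed2, 600 cells/well, 48 h compound exposure at 37C. Laser-scanning cytometry; analysed as GFP (500-530 nm)/RFP (575-640 nm) total intensity ratio; 0.5% DMSO vehicle.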

[1] = measured here: GFP splicing reporter channel
[2] = measured here: RFP viability control channel

SMILES	AC50 [1]	AC50 [2]
O=C1/C(=C/c2ccc3c(c2)OCO3)CCC/C1=C\c1ccc2c(c1)OCO2	35.5 µM [falling, single point]	35.5 µM [falling, single point]
CCOC(=O)C(NC(=O)c1ccccc1)=C1CCCCC1	31.6 µM [rising, single point]	–
Cc1nn(C)c(C)c1S(=O)(=O)N1CCCC(C(=O)N2CCN(c3ccc(Cl)cc3)CC2)C1 (stereo not given)	–	15.8 µM [rising, partial curve]
COc1ccc(C(=O)N2CCN=C2SC)cc1OC	–	0.794 µM [falling, full curve, poor fit]
CC1=C(C#N)CCC(=O)N1Cc1c(F)cccc1Cl	0.0562 µM [falling, full curve]	–
CCNC(=O)c1cnc2sc(N3CCCCCC3)nn2c1=O	–	0.224 µM [falling, full curve]
COC(=O)c1c(C)sc(-c2c(-c3ccc4c(c3)OCCO4)[nH]c3c2c(=O)n(C)c(=O)n3C)c1O	4.47 µM [falling, partial curve]	–
COC(=O)C1=NN(C(C)=O)C2(CC(=O)N(c3cccc(C)c3)C2=O)C1 (stereo not given)	–	0.0631 µM [rising, full curve]
Cc1ccc(OCCn2cc(C(=S)N3CCCC3)c3ccccc32)cc1C	–	5.62 µM [rising, full curve]
O=C(Nc1cccc(-c2cc3ccccc3oc2=O)c1)c1ccc(Br)o1	–	35.5 µM [rising, single point]
O=C(CCl)Nc1nc(-c2ccco2)c(-c2ccco2)s1	–	10 µM [rising, partial curve]
C=CCn1c(SCC(=O)Nc2ccc3c(c2)OCO3)nnc1-c1cc(Br)ccc1O	22.4 µM [rising, single point]	–
CSCCC(NS(=O)(=O)c1cccs1)C(=O)NCc1ccc(C)cc1 (stereo not given)	–	10 µM [rising, single point]
S=c1[nH]nc(CSCc2ccccc2Cl)n1C1CCCCC1	0.282 µM [falling, partial curve, poor fit]	0.1 µM [falling, full curve, poor fit]
COc1ccc(CNC(=O)c2cccc(C)c2[N+](=O)[O-])cc1	35.5 µM [rising, single point]	–
N=c1c2c(ncn1CCN1CCOCC1)Oc1ccc3ccccc3c1C2c1ccccc1 (stereo not given)	–	2.24 µM [rising, partial curve, poor fit]
CC(C)c1ccc(/C=C/C(=O)NC2=NCCS2)cc1	7.08 µM [rising, partial curve, poor fit]	14.1 µM [rising, single point]
c1ccc(CNc2nc(-c3cccs3)nc3ccccc23)nc1	35.5 µM [falling, partial curve, poor fit]	–

Filtered by structure, the compounds so far containing an aryl methoxy group (2)
SMILES	AC50 [1]	AC50 [2]
COc1ccc(C(=O)N2CCN=C2SC)cc1OC	–	0.794 µM [falling, full curve, poor fit]
COc1ccc(CNC(=O)c2cccc(C)c2[N+](=O)[O-])cc1	35.5 µM [rising, single point]	–

The listing continues.

SMILES	AC50 [1]	AC50 [2]
Cc1ccc(COc2ccc(Br)cc2/C=N/O)cc1	15.8 µM [falling, single point]	22.4 µM [falling, partial curve]
Cc1ccc(NC(=O)c2c(C)nc3ccccn23)cc1C	–	39.8 µM [falling, partial curve, poor fit]
COc1ccccc1/C=C1\SC(=S)N(N2C(=O)CCCC2=O)C1=O	–	7.94 µM [rising, partial curve, poor fit]
N#CCCN1CCN(C(=S)c2ccc(-c3cc(Cl)ccc3Cl)o2)CC1	35.5 µM [rising, single point]	–
N#CCCN1CCN(C2=NC(=O)C(=C3CCCCC3)S2)CC1	12.6 µM [rising, partial curve]	–
Cc1ccc(CN(C(=O)COc2cccc([N+](=O)[O-])c2)c2ccccn2)o1	–	17.8 µM [rising, partial curve, poor fit]
CCOC(=O)c1cccc(NC(=O)C(CC(C)C)N2Cc3ccccc3C2=O)c1 (stereo not given)	–	31.6 µM [rising, single point]
COc1cccc(NC(=O)c2ccc(NC(=O)C(C)(C)C)cc2)c1	14.1 µM [rising, single point]	31.6 µM [rising, single point]
Cn1nnnc1SCCNCc1ccc(F)cc1	2.24 µM [rising, partial curve]	–
CO[C@H]1[C@@H](OC(N)=O)[C@H](O)[C@@H](Oc2ccc3c(O)c(NC(=O)c4ccc(O)c(CC=C(C)C)c4)c(=O)oc3c2C)OC1(C)C	1.41 µM [falling, single point]	12.6 µM [falling, partial curve, poor fit]
COC(=O)[C@@]1(Cc2ccc(OC)cc2)[C@H]2c3cc(C(=O)N(C)C)n(Cc4ccc(OC(F)(F)F)cc4)c3C[C@H]2CN1C(=O)c1ccccc1	10 µM [rising, partial curve]	15.8 µM [rising, partial curve]
Cc1cc(OCC(=O)C(C)(C)C)c2c(C)c(C)c(=O)oc2c1	11.2 µM [rising, partial curve]	10 µM [rising, single point]
CCCNC(=O)c1ccc(-n2c(-c3ccccc3)cc3c2CCC(C)C3)cc1 (stereo not given)	3.16 µM [falling, partial curve, poor fit]	–
COC(=O)C1=C(C(=O)OC)[C@@H]2N(C)c3ccccc3[C@@]23C[C@@H](CO)N=C3N1	1.41 µM [rising, single point]	–
Cc1cccc(N2CCN(C(=O)CS(=O)(=O)c3cccc4nsnc34)CC2C)c1 (stereo not given)	–	6.31 µM [rising, single point]
CN(C)S(=O)(=O)c1cccc(-c2nnc(SCc3ccc4c(c3)OCCO4)o2)c1	–	22.4 µM [rising, partial curve, poor fit]
O=C(c1ccc(Cl)c(S(=O)(=O)NCc2ccco2)c1)N1CCN(c2ccc(F)cc2)CC1	–	15.8 µM [rising, single point]
CC(=O)Oc1ccc2c(=O)c(Oc3ccccc3)c(C)oc2c1OC(C)=O	35.5 µM [rising, single point]	35.5 µM [rising, single point]
